{"source": "paper PMC7819943", "about": "“Rice protein-binding microarrays: a tool to detect cis-acting elements near promoter regions in rice”", "note": "The list shows a part of the results.", "data": [{"biological_target": "T1, OsSMF1 (Oryza sativa, UniProt Q6ZLB0 1-436)", "T1 sequence": "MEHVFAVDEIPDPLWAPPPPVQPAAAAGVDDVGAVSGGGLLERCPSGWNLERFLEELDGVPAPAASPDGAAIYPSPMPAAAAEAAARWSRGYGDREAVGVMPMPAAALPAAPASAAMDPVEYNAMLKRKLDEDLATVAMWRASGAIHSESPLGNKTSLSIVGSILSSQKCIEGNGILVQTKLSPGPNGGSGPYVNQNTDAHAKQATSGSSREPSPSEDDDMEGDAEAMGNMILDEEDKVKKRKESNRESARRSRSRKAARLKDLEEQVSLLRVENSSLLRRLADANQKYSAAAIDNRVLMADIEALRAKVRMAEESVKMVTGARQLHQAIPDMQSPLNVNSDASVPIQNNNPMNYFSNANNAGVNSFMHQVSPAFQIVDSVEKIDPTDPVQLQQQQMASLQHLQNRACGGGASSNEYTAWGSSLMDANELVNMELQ", "assay": "protein-binding microarray (RPBM); PBS, 2% BSA, 51.3 ng/ul salmon testes DNA, 50 uM zinc acetate, 200 nM TF, 25 C, 1 h; high values mean tight binding", "conditions": "protein: recombinant; tags: N-terminal polyhistidine and DsRed monomer fusion (pET32a); chain copies: 2; label: CyDye5-dUTP incorporated in the synthesized complementary strand; 3' TTTTT single-stranded linker to array surface; dsDNA, one strand shown", "how_it_was_run": "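The binding signal is fluorescence intensity per array feature (arbitrary units). Readings came from an Axon 4000B scanner after a washed, 2% BSA-blocked, double-stranded custom Agilent array had been incubated for 1 h at 25 °C with 200 nM protein and 50 µM zinc acetate. The protein was a Ni–NTA-purified transcription factor fused N-terminally to polyhistidine and DsRed, expressed in E. coli BL21-CodonPlus.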", "values": [{"sequence": "TATAAACAATTAACCTATATATCTAAGTGCTGATTTAACCCGGAGTCACCTAGTGCAG", "binding signal": "3190 fluorescence intensity (a.u.)"}, {"sequence": "CCAACCCAGAGGCCATCAACGCAAGAACACATTCTCACCTCGGAGTCACCTAGTGCAG", "binding signal": "31700 fluorescence intensity (a.u.)"}, {"sequence": "TTATCTTATCTACGTACGACTTTGGTGATGTGATGGTATGCGGAGTCACCTAGTGCAG", "binding signal": "3190 fluorescence intensity (a.u.)"}, {"sequence": "TAGGATTCAGCTCCTTCCTATTAGGGGTTCACCCGCGAGTCGGAGTCACCTAGTGCAG", "binding signal": "13800 fluorescence intensity (a.u.)"}, {"sequence": "TAGAATTGAGAGGGAGGGAGTATAGGGCCTGTTTAGTTCGCGGAGTCACCTAGTGCAG", "binding signal": "3300 fluorescence intensity (a.u.)"}, {"sequence": "GAGAAGGACGCACACCTCACCATCGCGGCCCCTGCCACGTCGGAGTCACCTAGTGCAG", "binding signal": "9310 fluorescence intensity (a.u.)"}, {"sequence": "TGGTGGTGGGTATGGCGTTAGATCCATCCACGCCTTCGTGCGGAGTCACCTAGTGCAG", "binding signal": "3760 fluorescence intensity (a.u.)"}, {"sequence": "TCCCGCCACGCCACCCCACTGTTTCATTCCCTCGTGGCGCCGGAGTCACCTAGTGCAG", "binding signal": "8150 fluorescence intensity (a.u.)"}, {"sequence": "CACCGCTCCTCCTCTGTTCCTTCCCATCGTCAGCATCGCCCGGAGTCACCTAGTGCAG", "binding signal": "6030 fluorescence intensity (a.u.)"}, {"sequence": "TGTGACAGAGGAAGTACACGGTATTATGGCATGTGTACCGCGGAGTCACCTAGTGCAG", "binding signal": "3390 fluorescence intensity (a.u.)"}, {"sequence": "CCCTCCGCCACGCCGCTCTCGACACCTCCTCCGTCGGCCTCGGAGTCACCTAGTGCAG", "binding signal": "3460 fluorescence intensity (a.u.)"}, {"sequence": "CACGCCTCCTCCGATGAGTCACTCTACGATGATTGATGCGCGGAGTCACCTAGTGCAG", "binding signal": "6220 fluorescence intensity (a.u.)"}, {"sequence": "AAATTCAGAGACTGGGCAGTTTGCACGCGTCATCATCCATCGGAGTCACCTAGTGCAG", "binding signal": "10400 fluorescence intensity (a.u.)"}, {"sequence": "GTCGGTCGATAGCGAACTGACGTTGGCTCGATTCGCCATTCGGAGTCACCTAGTGCAG", "binding signal": "3260 fluorescence intensity (a.u.)"}, {"sequence": "TGATTGCTGGCACAAGCCACCGCGTCATGGTTGCTTGGTGCGGAGTCACCTAGTGCAG", "binding signal": "3150 fluorescence intensity (a.u.)"}, {"sequence": "AATAGGGGAAAGCCATAAAGTGTATGTGTAACCACCACCTCGGAGTCACCTAGTGCAG", "binding signal": "3150 fluorescence intensity (a.u.)"}, {"sequence": "TCCGATTTTATCCTACGTGACGGCTGAGTCAGCGTAGGACCGGAGTCACCTAGTGCAG", "binding signal": "9600 fluorescence intensity (a.u.)"}, {"sequence": "GGGCCTCCCCTCCTCCCTTCGCTGGCGAGAGGACGGAGACCGGAGTCACCTAGTGCAG", "binding signal": "3400 fluorescence intensity (a.u.)"}, {"sequence": "TGTCCGACGTGATGGCTGAGTCAGCGTGGGACCCACGTGGCGGAGTCACCTAGTGCAG", "binding signal": "22600 fluorescence intensity (a.u.)"}, {"sequence": "AAAACAGCTTCATCTTTGCCACCGAGCCCCACCACGTCATCGGAGTCACCTAGTGCAG", "binding signal": "13700 fluorescence intensity (a.u.)"}, {"sequence": "GTTGAAACTCTACCCACAAGGGCTATATCCACGTCAGTCACGGAGTCACCTAGTGCAG", "binding signal": "15100 fluorescence intensity (a.u.)"}, {"sequence": "CCGGTGCGGGTGCCCACACGTCATGGAGAGGGCGAGGCAGCGGAGTCACCTAGTGCAG", "binding signal": "3880 fluorescence intensity (a.u.)"}, {"sequence": "GCAAAGCACCAGCCCAGCCAGCGCGGCGCCAAACTCCACCCGGAGTCACCTAGTGCAG", "binding signal": "3470 fluorescence intensity (a.u.)"}, {"sequence": "TATATGAGAAATACTTTGAAGTAAGTTATCGTGTCATGGACGGAGTCACCTAGTGCAG", "binding signal": "3360 fluorescence intensity (a.u.)"}, {"sequence": "GTTCTTACAGTTGCATTCAGCTATGCTGACATGGAAGATTCGGAGTCACCTAGTGCAG", "binding signal": "7390 fluorescence intensity (a.u.)"}, {"sequence": "AGTCTCATGACTGCTGCTATCTGAATCATCACCACGAGCTCGGAGTCACCTAGTGCAG", "binding signal": "4730 fluorescence intensity (a.u.)"}, {"sequence": "GAAGCAGCAGTAGAGAGAGAGAGAGAACAAGTAAACTCTCCGGAGTCACCTAGTGCAG", "binding signal": "3160 fluorescence intensity (a.u.)"}, {"sequence": "GGTCGACACATCGATTGCATGCCGTTTGTACATCTTGGCACGGAGTCACCTAGTGCAG", "binding signal": "4500 fluorescence intensity (a.u.)"}, {"sequence": "ATAACCGCCCTAATTTACTTTAGCATACGTGGAGTACAAGCGGAGTCACCTAGTGCAG", "binding signal": "6900 fluorescence intensity (a.u.)"}, {"sequence": "CGTCTACGTACGTCGCTGCCACGGTACAGGGAATCTGAGTCGGAGTCACCTAGTGCAG", "binding signal": "3500 fluorescence intensity (a.u.)"}, {"sequence": "CTTAATGCGGCGTGACGCGCTCGTCAATCCGCTATAAGTGCGGAGTCACCTAGTGCAG", "binding signal": "3240 fluorescence intensity (a.u.)"}, {"sequence": "GGTTCTCTTAAATGGACTGCACGTGTAAATGAGCTTATTTCGGAGTCACCTAGTGCAG", "binding signal": "3300 fluorescence intensity (a.u.)"}, {"sequence": "ACGTAGCGGCTGAGTTAGCGTGGGACCCACGTGGGCCCCACGGAGTCACCTAGTGCAG", "binding signal": "5500 fluorescence intensity (a.u.)"}, {"sequence": "AGCCTGCTATTGTACACACTCTAAGAGAACTAAAAGTAAACGGAGTCACCTAGTGCAG", "binding signal": "14300 fluorescence intensity (a.u.)"}, {"sequence": "TGGAGGTAAATGAGAGAAACACCAGGAATCGCGTCATACGCGGAGTCACCTAGTGCAG", "binding signal": "26700 fluorescence intensity (a.u.)"}, {"sequence": "GATAGAGTATATTTTGCCAGGTCACATCGAGATCGGAGTCCGGAGTCACCTAGTGCAG", "binding signal": "8380 fluorescence intensity (a.u.)"}, {"sequence": "CCCTGGTCGCGCTCCACCTCGGCGTCGTCCGTGGCGGTCGCGGAGTCACCTAGTGCAG", "binding signal": "4330 fluorescence intensity (a.u.)"}, {"sequence": "GGGGCCCTCCGGCCTCCGCTGCCACGTGAGGTGCGCCCAACGGAGTCACCTAGTGCAG", "binding signal": "5340 fluorescence intensity (a.u.)"}, {"sequence": "CTGCAAAGCCAGCTGGTTCCATCTTCTCGTACAGCTCCCCCGGAGTCACCTAGTGCAG", "binding signal": "3320 fluorescence intensity (a.u.)"}, {"sequence": "GTATCCCTCCATATTCGGCTACGTCATAGAGCTACAGACCCGGAGTCACCTAGTGCAG", "binding signal": "3740 fluorescence intensity (a.u.)"}, {"sequence": "CCTCTCGCAACTAACCACGCCACGTATGCCGGGTCGCACCCGGAGTCACCTAGTGCAG", "binding signal": "17900 fluorescence intensity (a.u.)"}, {"sequence": "CCTACCTGTCATACATATATTACGTCTTGTAGTCTATGCTCGGAGTCACCTAGTGCAG", "binding signal": "3290 fluorescence intensity (a.u.)"}, {"sequence": "CATTGTGTGAAATTATTGTAATTGTAGAATAAGAGAATCACGGAGTCACCTAGTGCAG", "binding signal": "17400 fluorescence intensity (a.u.)"}, {"sequence": "AAATAAAACCGTTTGTTTATAACACAACGGTAGCAAATGACGGAGTCACCTAGTGCAG", "binding signal": "3140 fluorescence intensity (a.u.)"}, {"sequence": "TCTCCGCCGCCGCCGCCACCGTCACCCTCCTCGGCCTCCCCGGAGTCACCTAGTGCAG", "binding signal": "6040 fluorescence intensity (a.u.)"}, {"sequence": "ACAAGTGAAAATTCTCCACGTTGGATCCAACCTAGTAAGCCGGAGTCACCTAGTGCAG", "binding signal": "5260 fluorescence intensity (a.u.)"}, {"sequence": "GGCGGCGCCGGCGCTCGTCCTGCCGCCACCGCCGCGGCCGCGGAGTCACCTAGTGCAG", "binding signal": "3190 fluorescence intensity (a.u.)"}, {"sequence": "CATTTCTTCTGAGTATTCAATGTTTCGTCCCCACGAAAATCGGAGTCACCTAGTGCAG", "binding signal": "33000 fluorescence intensity (a.u.)"}, {"sequence": "CGTTCCTGCCTGAACGCACGCAAGGTGCTCGACGAAATGCCGGAGTCACCTAGTGCAG", "binding signal": "3510 fluorescence intensity (a.u.)"}, {"sequence": "CGAAATGGGAGGCGGGGTTTAGGGTTTCCGGCGGGGAGGGCGGAGTCACCTAGTGCAG", "binding signal": "5780 fluorescence intensity (a.u.)"}, {"sequence": "ACCATGTAGGCTATGACACAATGTATATTTGCTTTAGTTTCGGAGTCACCTAGTGCAG", "binding signal": "3730 fluorescence intensity (a.u.)"}, {"sequence": "TAATCGATTTATTGATGTGAAAATTTTGCTTTGTCATGTCCGGAGTCACCTAGTGCAG", "binding signal": "3410 fluorescence intensity (a.u.)"}, {"sequence": "ACATCAATCTTGAAAATCACGATGAACATGACGTGGATTTCGGAGTCACCTAGTGCAG", "binding signal": "10900 fluorescence intensity (a.u.)"}, {"sequence": "CCCTCGTGGTCACCGCGCGATCACCCTTAAGTGGGTGTTCCGGAGTCACCTAGTGCAG", "binding signal": "3280 fluorescence intensity (a.u.)"}]}]}
